## Screening data, single-dose tests

Amino acid sequences for entries named in this document (tags omitted).
UniProt P9WPC5, whole entry: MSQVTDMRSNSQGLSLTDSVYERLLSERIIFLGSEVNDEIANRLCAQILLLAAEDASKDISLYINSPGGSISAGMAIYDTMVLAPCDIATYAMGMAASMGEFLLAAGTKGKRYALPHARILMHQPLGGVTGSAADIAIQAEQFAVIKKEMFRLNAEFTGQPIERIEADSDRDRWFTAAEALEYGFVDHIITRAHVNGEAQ
UniProt P9WPC3, whole entry partner: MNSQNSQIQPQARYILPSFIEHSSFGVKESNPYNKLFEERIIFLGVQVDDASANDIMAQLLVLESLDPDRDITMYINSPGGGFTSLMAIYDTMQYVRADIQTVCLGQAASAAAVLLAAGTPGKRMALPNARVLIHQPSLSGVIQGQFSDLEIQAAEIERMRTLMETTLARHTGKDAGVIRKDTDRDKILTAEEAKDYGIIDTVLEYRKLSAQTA
UniProt P9WNZ1, whole entry: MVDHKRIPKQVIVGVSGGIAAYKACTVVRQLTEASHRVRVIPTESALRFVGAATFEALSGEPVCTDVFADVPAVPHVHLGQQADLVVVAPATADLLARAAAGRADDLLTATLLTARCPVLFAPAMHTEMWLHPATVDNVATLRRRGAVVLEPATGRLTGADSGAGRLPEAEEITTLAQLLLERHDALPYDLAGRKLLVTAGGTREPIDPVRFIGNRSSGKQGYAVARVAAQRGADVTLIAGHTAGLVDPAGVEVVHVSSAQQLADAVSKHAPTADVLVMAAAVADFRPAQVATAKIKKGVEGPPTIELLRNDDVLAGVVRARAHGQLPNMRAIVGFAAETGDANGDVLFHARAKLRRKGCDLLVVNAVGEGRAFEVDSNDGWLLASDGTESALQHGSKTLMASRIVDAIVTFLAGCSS

Source: ChEMBL document CHEMBL3988442, “University of Dundee, Small-Polar-MMV Screening Library” (2021).

Each number is a percent effect as filed. The controls that fix the scale are not given in the record; negative values are as filed. This is an unselected part of the compounds tested. A dash means the value is not listed here; it may have been measured.

ClpP1P2: 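ClpP1P2, Mycobacterium tuberculosis (UniProt P9WPC5 and UniProt P9WPC3). Protease assay of ClpP1P2, read by the AMC dye that it sets free. Concentration: 50 µM. Direction is inferred from only a few compounds that gave an IC50; most scored high, so higher reads as stronger inhibition. Most other retested compounds had strongly negative values. Size under these conditions: about 69,000 compounds, about 10 of them at 50% or above in at least one test.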
CoaBC: 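Enzyme assay of CoaBC with a phosphate dye (Biomol Green) read at 650 nm. Target: Coenzyme A biosynthesis protein CoaBC, Mycobacterium tuberculosis (UniProt P9WNZ1). Tested at 30 µM. Higher reads as stronger inhibition, judged from the few compounds that gave an IC50. Most strong results did not repeat in a second test. Size under these conditions: about 67,000 compounds, about 40 of them at 50% or above in at least one test.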
Toxoplasma: 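Assay of Toxoplasma gondii numbers, read through their beta-galactosidase reporter with a colour substrate. Tested at 10 µM. The record gives no direction; the compounds picked for IC50 retests had high values, so higher reads as fewer parasites. About 67,000 compounds were tested under these conditions; 0.38% (about 260) showed 50% or more at least once.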

structure	ClpP1P2	CoaBC	Toxoplasma
CCOCCC(=O)Nc1cc(C(N)=O)ccc1N1CCCC(C)C1 (centres unmarked)	-8.477%	4.4%	-5.784%
Cc1cccc(CN2C(=O)CO[C@@H]3CN(CCO)C[C@H]32)c1	5.964%	10.97%	-
CCN1CC(CN(C)Cc2nc(-c3ccc(C)o3)oc2C)CC1=O (centres unmarked)	-32.49%	0.4959%	7.83%
Cc1cc(C2CCCN2C(=O)NCc2c(C)cc(C)[nH]c2=O)on1 (centres unmarked)	-3.538%	-5.59%	-5.276%
Cc1ccc2c(c1)cc(CN1CC[C@](C)(O)[C@H](C)C1)n2C	-17.01%	0.8168%	9.184%
O=C(O)C1(n2ccnc2)CCN(Cc2ccc3occc3c2)CC1	-2.13%	1.364%	8.661%
CC(C)(C)c1cnc(CN2CCC(NC(=O)NC3CCCCC3)CC2)o1	5.809%	5.242%	1.335%
[H][C@@]12COC[C@]1(COCc1cccnc1)CN(C(=O)c1cnn(C)c1)C2	-	-	-1.552%
Cc1ccc(NC2CCN(C(=O)c3ccc(F)cc3Cl)CC2)nn1	-18.72%	3.181%	-26.96%
[H][C@]12CCN(C(=O)Cc3cccc(OC)c3)CC[C@@]1([H])S(=O)(=O)N(C)C2	-	-	-10.21%
Cc1nnc(SCCCNC(=O)Cc2ccc3c(c2)OCO3)s1	-12.08%	-2.314%	-0.9831%
COCC1COCCC12CCN(C(=O)CCOc1ccccc1)CC2 (centres unmarked)	3.684%	1.863%	0.2302%
CCc1cnc(N2C[C@H]3CN(Cc4ccc(OC)cc4)C(=O)[C@H]3C2)nc1	0.09031%	-3.75%	-
CC(C)c1ccc(OCCC(=O)N2CCCN(C(N)=O)CC2)cc1	-24.57%	5.45%	-6.326%
O=C(CN1CCCC1c1nc(Cc2ccc(F)cc2)no1)NC1CC1 (centres unmarked)	-10.33%	1.266%	-4.489%
Cc1ccc(NC2CCN(C(=O)COc3cccc(F)c3)CC2)nn1	27.95%	1.863%	6.162%
Cc1nnc(NC(=O)CN2CCCC(Cn3cncn3)C2)s1 (centres unmarked)	-1.411%	4.824%	4.552%
CN(C)c1ncc2c(n1)CCCC2NC(=O)C1CC1 (centres unmarked)	-11.51%	-2.788%	7.926%
CC(O)CN1CC2(CCC1=O)CCN(C(=O)c1cnn(C)c1)CC2 (centres unmarked)	-0.622%	1.44%	-0.634%
CC(C)(O)c1cn(C2CCN(C(=O)CCC(F)(F)F)CC2)nn1	-8.988%	2.36%	-13.86%
CS(=O)(=O)CCN1CCC2(CCCN(C3CCOCC3)C2=O)C1 (centres unmarked)	-8.825%	1.505%	5.503%
Cc1cccc(CN2CCc3onc(CO)c3C2)n1.O=C(O)C(F)(F)F	-	-	1.325%
Cc1n[nH]c(C2CN(C(=O)c3ccnc(C4CC4)n3)CCO2)n1 (centres unmarked)	-1.768%	3.077%	-0.2953%
O=C(O)C(F)(F)F.[H][C@@]12CCN(Cc3ccc(C)s3)C[C@]1([H])[C@H](c1nc(C)no1)CCO2	-	-	-7.824%
O=C(Nc1ccc(Br)cc1F)c1ccc(N2CCOCC2)nn1	2.088%	5.765%	-4.066%
CCc1c(C)nc2cc(C3CCN(Cc4ccc(F)cc4)C3)nn2c1O (centres unmarked)	0.4848%	-0.2451%	-2.189%
Cc1nc(C)n(CC2CN(CCC(=O)N3CCCCC3)CCO2)n1 (centres unmarked)	-39.1%	1.567%	-1.354%
Cc1nccn1CCN(C)c1nc(-c2cccnc2)nc2c1CCNC2	-26.79%	-0.9756%	8.117%
COc1cccc(OCC(=O)N(C)c2cccnc2)c1	-9.613%	9.752%	9.413%
O=C(O)C(F)(F)F.[H][C@@]12OCCN(C(=O)c3ccc(C)o3)[C@@]1([H])CC[C@H]2OCc1ccccn1	-	-	0.6197%
CC(=O)N1CCCC(C(=O)NCc2noc(Cc3ccccc3)n2)C1 (centres unmarked)	-17.4%	-0.2475%	-13.41%
CN1CCCc2c1nc1c(c2N)CCC1	-11.52%	8.01%	-13.3%
Cc1cc(C)c(CNC(=O)N(C)Cc2ccc3c(c2)OCO3)c(=O)[nH]1	-23.84%	5.085%	-8.851%
CS(=O)(=O)Cc1ccccc1NCc1cc(Cl)ccc1Cl	-12.66%	2.297%	-5.055%
O=C(NCCN1CCCS1(=O)=O)c1scnc1Cl	-19.86%	2.477%	-30.89%
Cc1c(F)cccc1S(=O)(=O)Nc1noc(C(C)C)n1	-10.54%	-27.08%	-0.2651%
O=C(NCc1ccc(C(=O)O)o1)c1ccc(F)cc1	-10.61%	10.36%	-3.709%
Cc1cc(=O)n(CCNS(=O)(=O)c2ccc(F)c(Cl)c2)cn1	-20.49%	-2.663%	-7.563%
O=C(Cc1c[nH]c2ccccc12)N1CCC(Nc2cccnc2)CC1	-25.12%	-2.212%	14.39%
O=c1c2ccccc2nc2n1C(CSc1ccc(F)cc1)CN2 (centres unmarked)	-12.77%	0.9206%	5.709%
O=C(O)C(F)(F)F.[H][C@@]12CCCO[C@]1([H])[C@H](NC(=O)c1cnccn1)CN(c1ncccn1)C2	-	-	1.175%
O=C(c1cnc2c(c1)CCC2)N1CCCC(CO)(CC2CC2)C1 (centres unmarked)	-7.263%	-0.9732%	-9.644%
c1csc(-c2nc(CN3CCOC(Cn4cccn4)C3)co2)c1 (centres unmarked)	6.803%	5.101%	8.214%
O=C(Cn1nc(C(F)(F)F)c(Br)c1C1CC1)N1CCOCC1	12.81%	-2.169%	-21.71%
O=C(Nc1ccc(CC(=O)N2CCSCC2)cc1)NC1CCCC1	10.18%	3.667%	1.153%
[H][C@@]12CCN[C@]1([H])CN(S(=O)(=O)c1cccc(Cl)c1)C2	-	-	14.16%
O=C(O)c1cc(S(=O)(=O)Nc2cc(F)cc(F)c2)cc2c1OCCO2	-6.746%	1.908%	6.175%
Cc1nnc(SCCCNc2cc(C3CC3)ncn2)s1	-13.97%	-1.517%	24.21%
Cc1cccc(C)c1NC(=O)CCNC(=O)c1ccoc1	13.14%	3.846%	-2.067%
CN(C)c1nc(N)nc(CSCCC(=O)Nc2cccc(Cl)c2)n1	7.517%	-0.2481%	-7.21%
Cc1nc(N2CCCC2C(=O)NCc2ccsc2)nc2ccccc12 (centres unmarked)	-95.29%	7.025%	10%
CNC(=O)[C@@H](CC(C)C)N1CCC[C@H]1C(=O)N(C)Cc1ccccc1	1.322%	7.901%	-
CCc1cc(C(C)Nc2nc(-c3cccnc3)nc3c2CNC3)on1 (centres unmarked)	-1.296%	-	-0.389%
CN(Cc1cncnc1)[C@@H]1CN(C(=O)C2CC2)[C@@H]2CCCO[C@H]12	-8.447%	4.938%	-
CCC(CNC(=O)c1ccc(=O)[nH]n1)N1CCc2ccccc2C1 (centres unmarked)	2.099%	5.33%	-5.309%
CCCS(=O)(=O)N1CCC2(CCC(=O)N(CCc3ccncc3)C2)CC1	-5.546%	6.931%	-12.17%
O=C(O)C(F)(F)F.O=C(O)C(F)(F)F.[H][C@@]12CCN(CC3CCOCC3)[C@@]1([H])CCN2Cc1c(C)noc1C	-	-	17.52%
CC(C)(C)c1cc(NC(=O)C2COCCO2)n(-c2ccccn2)n1 (centres unmarked)	6.662%	0.4016%	13.23%
COc1ccc(C2CCCN2C(=O)NCCCn2cccn2)cc1 (centres unmarked)	-0.9163%	5.785%	9.419%
CCS(=O)(=O)NCCNC(C)(C)c1nc(C)cs1	1.075%	-6.087%	1.311%
Cc1nc(CN2CCOCC3(CCN(c4ncccn4)CC3)C2)cs1.O=C(O)C(F)(F)F	-	-	5.02%
c1ccc(Cc2noc(CN3CCCCC3C3OCCO3)n2)cc1 (centres unmarked)	-11.52%	3.733%	-10.96%
CC(NC(=O)c1ccc(F)cc1F)c1cnn(C)c1 (centres unmarked)	-2.503%	-3.505%	9.745%
CC1(C)[C@H](Cc2cc(CO)on2)C[C@@H]1N(CC1CC1)CC1CC1	-14.31%	18.27%	-0.5702%
Cn1nc(CN2CCCC2)c2c1CN(CC1CC1)CC2.O=C(O)C(F)(F)F.O=C(O)C(F)(F)F	-	-	11.68%
Cn1nc(CNC(=O)CC#N)c2c1CN(CC1CC1)CC2.O=C(O)C(F)(F)F	-	-	-22.66%
CC(C)C(NC(=O)C1CC1)c1cc(O)nc(-c2cccnc2)n1 (centres unmarked)	-0.9986%	-16.71%	-4.932%

For reference, 7 entries once more:

| structure | ClpP1P2 | CoaBC | Toxoplasma |
|---|---|---|---|
| `CC(O)CN1CC2(CCC1=O)CCN(C(=O)c1cnn(C)c1)CC2` (centres unmarked) | -0.622% | 1.44% | -0.634% |
| `CCOCCC(=O)Nc1cc(C(N)=O)ccc1N1CCCC(C)C1` (centres unmarked) | -8.477% | 4.4% | -5.784% |
| `COCC1COCCC12CCN(C(=O)CCOc1ccccc1)CC2` (centres unmarked) | 3.684% | 1.863% | 0.2302% |
| `Cc1cc(C)c(CNC(=O)N(C)Cc2ccc3c(c2)OCO3)c(=O)[nH]1` | -23.84% | 5.085% | -8.851% |
| `CC(C)(C)c1cc(NC(=O)C2COCCO2)n(-c2ccccn2)n1` (centres unmarked) | 6.662% | 0.4016% | 13.23% |
| `CN(C)c1ncc2c(n1)CCCC2NC(=O)C1CC1` (centres unmarked) | -11.51% | -2.788% | 7.926% |
| `CC(C)C(NC(=O)C1CC1)c1cc(O)nc(-c2cccnc2)n1` (centres unmarked) | -0.9986% | -16.71% | -4.932% |